# In patent US20200368361A1:
# Where a chain is given by its changes, count along the chain named. Names and notes keep the numbering of the source. Results are given in words; binding and its absence hold for the method and conditions named. Some binding calls cover weakened binding; strength is not graded here. For part of these data: Sequences can lack the tags named with a protein.
# T1: mouse MSR1 extracellular domain expressed with a N-terminal nonahistidine tag (mouse) (UniProt P30204)
# T1 sequence: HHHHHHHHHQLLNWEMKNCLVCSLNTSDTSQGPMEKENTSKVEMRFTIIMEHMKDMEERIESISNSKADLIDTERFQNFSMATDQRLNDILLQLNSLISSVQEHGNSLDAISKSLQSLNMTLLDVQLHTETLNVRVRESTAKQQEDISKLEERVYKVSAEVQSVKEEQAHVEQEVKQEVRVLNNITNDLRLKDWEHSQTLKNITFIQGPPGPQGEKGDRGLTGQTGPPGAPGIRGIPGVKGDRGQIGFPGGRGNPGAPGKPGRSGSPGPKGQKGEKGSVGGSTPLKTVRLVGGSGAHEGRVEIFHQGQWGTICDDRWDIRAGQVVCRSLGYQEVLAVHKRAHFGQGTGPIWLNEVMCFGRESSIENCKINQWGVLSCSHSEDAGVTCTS
# B1: H1H21234N-N297Q (antibody, human IgG1, V domains shown)
# VH: QVQLQESGPGLVKPSETLSLTCTVTGGSISRNYWSWIRQPPGKGLEWIGYIYYSGSIDYNPSLKSRVTISVDTSKNQFSLKLSSMTAADTAVYYCARDRWNWKYGMDVWGQGTTVIVSS
# VL: EIVLTQSPGTLSLSPGERATLSCRASQTVRNNYLAWYHQKPGQAPRLLIYGASSRATGIPDRFSGSGSGTDFTLTISRLEPEDFTVYYCHQYGNSPWTFGQGTKMEIKR
# B2: H1H21234N (antibody, human IgG1, V domains shown)
# VH: B1 VH
# VL: B1 VL
# B3: H1H27729P-N297Q (antibody, human IgG1, V domains shown)
# VH: QVQLVESGGGLVKPGGSLRLSCAASGFIFSDYYMSWIRQAPGKGLEWVSYISSSGTTIYGDSVKGRFTMSRDNAKNSLYLQMNSLRAEDTAVYYCARNYALFDYWGQGTLVTVSS
# VL: DIQMTQSPSSLSASVGDRVTITCQASQDISKYLNWYQQKPGKAPKLLIYYTSNLETGVPSRFSGSGSGTDFTFTISSLQPEDIATYYCHQSDYLPFTFGPGTKVDIKR
# B4: H1H27734P-N297Q (antibody, human IgG1, V domains shown)
# VH: EVQLVESRGGLVQPGGSLRLSCAASGFTFSSYAMSWVRQAPGKGLEWVSAISGSGGSTFYADSVKGRFTISRDNSKNTVYLQMNSLRAEDTAVYYCAKALVLRFLEWLGDYWGQGTLVTVSS
# VL: DIQMTQSPSTLSASVGDRVTITCRASQSISSWLAWFQQKPGKAPKLLIYKASSLESGVPSRFSGSGSGTEFTLTISSLQPDDFATYYCQQYKSYWTFGQGTKVEIKR
# B5: H1H27739P-N297Q (antibody, human IgG1, V domains shown)
# VH: EVQLVESGGGLVQPGGSLRLSCTASGFTFSSYAMSWVRQAPGKGLEWVSAISGTGSSTYFTDSVKGRFAISRDNSKNTLYLQMNSLRAEDTAVYYCAKDGEWLSTVTLFDYWGQGTLVTVSS
# VL: EIVMTQSPATLSVSPGERATLSCRASQSVSSNLAWYQQKPGQAPRLLIYGASTRATGIPARFSGSGSGTDFTLTISSLQSEDFALYYCQQYFIWPPHPTFGPGTKVDIKR
# B6: H1H27747P-N297Q (antibody, human IgG1, V domains shown)
# VH: QVQLVESGGAVVQPGRSLRLSCAASGFTFSYYGMHWVRQAPGKGLEWVAVISYDGSKKYYADSVKGRFTISRDNSKNTLYLQMNSLRAEDTAVYYCAKDLTVDFYYGMDVWGQGTTVTVSS
# VL: DIQMTQSPSSVSASVGDRVTITCRASQGISSWLAWYQQKPGKAPKLLIYATSSLQSGAPSRFSGSGSGTDFTLTISSLQPEDFATYFCQQANSFPYTFGQGTKLEIKR
# B7: H1H27754P-N297Q (antibody, human IgG1, V domains shown)
# VH: EVQLVESGGGLVQPGGSLRLSCAASGFTFRTYAMTWVRQAPGKGLDWVSAITGDGGNTYYADSVKGRFTISRDNSKNTLYLQMNSLRAEDTAIYYCAKDQRFSFALYYFDYWGQGTLVTVSS
# VL: B6 VL with K42N, T51A, S52F, A58V, F87Y, S93N, Y96W, L104V
# B8: H2aM25695N (antibody, mouse IgG2a, V domains shown)
# VH: B1 VH with D58N, T73M, S83N, M85V
# VL: B1 VL with N32S, T85A, H90Q, N94S, P96Y
# Columns and labels:
# [1] = biological target: T1, mouse MSR1 extracellular domain expressed with a N-terminal nonahistidine tag (mouse); assay: BLI (Octet HTX), antibody captured, 25 C
# [2] = biological target: full length monkey MSR1 on HEK293.mfMSR1 cells (Macaca fascicularis); assay: ECL cell binding, HEK293.mfMSR1, 11 nM; heading of the table's group
# [3] = biological target: full length monkey MSR1 on HEK293.mfMSR1 cells (Macaca fascicularis); assay: ECL cell binding (Meso Scale), 11 nM antibody, ratio to isotype control
Binder,binding [1],binding [2],binding [3]
B1,binds,binds,binds
B2,binds,binds,binds
B3,,binds,binds
B4,,binds,binds
B5,,binds,binds
B6,,binds,binds
B7,,binds,binds
B8,,binds,binds
